# The list shows a part of the results.
# System: T1, CTL2-GFP (C. trachomatis L2/434/Bu, GFP-expressing)
# T1 construct: L2/434/Bu, GFP-expressing
# Parameters: species or system HeLa; Intracellular C. trachomatis growth in HeLa cells, bulk GFP fluorescence relative to DMSO
# Settings: bulk GFP, single well; 28.5 h, 10 µM; inhibitor
row,SMILES,% of control remaining [%]
1,Cc1cccc(C)c1OCC(=O)Nc1c[nH]c(=O)[nH]c1=O [CBK263358],117.017
2,CN1CCN(C(=O)c2ccc(NS(=O)(=O)c3ccc(Oc4ccccc4)cc3)cc2)CC1 [CBK034559],112.699
3,CC(=O)c1cn(CCC(=O)NC2CCCOC2)c2ccccc12 (stereo not drawn) [CBK282515],88.7849
4,Cc1ccsc1CN(Cc1nccn1C)CC(C)O (stereo not drawn) [CBK282976],120.722
5,C=CCOC(=O)C1=C(C)N=C2SCCC(=O)N2C1c1ccc(SC)cc1 (stereo not drawn) [CBK073405],94.8155
6,COc1cc(NC(=O)c2cc3c4c(sc3nc2N)CN(C)CC4)c(OC)c(OC)c1 [CBK269597],142.707
7,Cc1nc2ccccn2c1CN1CCC(N2CCCC2)CC1 [CBK281730],94.545
8,COc1nccnc1OC1CCN(CCc2ccc(F)cc2)CC1 [CBK084259],98.8057
9,Cc1cc(C)n2c(SCc3ccccc3)nnc2n1 [CBK025780],145.941
10,c1coc(CNc2cncc(-c3ccc4c(c3)OCO4)n2)c1 [CBK065930],140.776
11,COc1ccc(-c2cc(C(=O)NCc3ccc4c(c3)OCO4)cnc2-c2ccccc2)cn1 [CBK037571],143.823
12,NC(=O)CN1CCC(C(=O)c2ccc(F)cc2)CC1 [CBK149130],131.045
13,C=C(C)CN1CCN(C(=O)c2cc3cccc(OC)c3oc2=O)CC1 [CBK269211],135.471
14,COC(=O)c1ccc(NS(=O)(=O)c2cccc3cccnc23)cc1 [CBK028694],117.121
15,Fc1cccc2sc(Nc3nnc(-c4ccco4)o3)nc12 [CBK287480],144.941
16,Nc1ncc(-c2ccoc2)nc1NCc1ccco1 [CBK063652],137.04
17,COCCNc1nc2c(c(N3CCC(C#N)CC3)n1)CCNCC2 [CBK307706],141.349
18,Fc1ccc(CNCCN2CCOCC2)cc1 [CBK278192C],110.727
19,CCN1CC2(CCN(CCCCC3NC(=O)NC3=O)CC2)c2ccccc21 (stereo not drawn) [CBK131489],55.2352
20,CCN(Cc1ccncc1)C(=O)NC(C)c1ccccc1 (stereo not drawn) [CBK155156],115.902
21,COC(=O)N1CC2(CCCCC2NCCC(F)(F)F)c2ccccc21 (stereo not drawn) [CBK083539T],101.871

row,SMILES,% of control remaining [%]
1,CCn1ccnc1CN1CCOC(Cc2ccccc2Cl)C1 (stereo not drawn) [CBK306625],80.315
2,O=C(NCc1ccccn1)c1cncc(Br)c1 [CBK265226],118.244
3,CC(C)(CC(=O)O)CC(=O)Nc1cc(S(=O)(=O)N2CCCC2)ccc1Cl [CBK296702],153.674
4,Nc1cc2cccnc2nc1-c1ccncc1 [CBK067601],124.985
5,C=CCNc1nccnc1-c1ccc(C(C)=O)s1 [CBK037052],176.289
6,O=C(CSc1ncn(-c2ccccc2)n1)Nc1ccccc1Cl [CBK265593],124.4
7,CCOC(=O)C1CN(C(=O)N(CCN)Cc2ccc(Cl)cc2)CC1c1ccccc1 (stereo not drawn) [CBK001682C],100.522
8,C=CCc1cccc(Cl)c1OCCN1CCN(C)CC1 [CBK269734C],129.333
9,N#Cc1ccc(NCC(=O)Nc2ncccc2O)cc1 [CBK306413],120.339
10,O=C(NCc1ccc(F)cc1)N1CCCC(CO)C1 (stereo not drawn) [CBK156056],101.833
11,COc1ccc(CC(=O)Nc2ccc(OCC(=O)O)cc2)cc1 [CBK264244],95.2698
12,O=C(Cc1ccc(F)cc1)N1CCOC(Cn2ccnc2)C1 (stereo not drawn) [CBK282875],113.852
13,CC(Oc1cccc(Cl)c1)c1nc(-c2cccs2)no1 (stereo not drawn) [CBK293984],132.888
14,COc1ccc(-c2noc([C@@H]3C[C@H](NC(=O)c4ccc(F)cc4)CN3C)n2)cc1 [CBK288861],84.8583
15,CCCCN(C)c1c(C)nc2c(OCC(=O)c3ccc(F)cc3)cccn12 [CBK147172],167.691
16,O=c1[nH]n(-c2ccccc2)c(=O)n1Cc1ccccc1F [CBK122770],149.155
17,O=C(c1ccsc1NS(=O)(=O)c1ccc2ccccc2c1)N1CCOCC1 [CBK042278],100
18,COCc1nc(NCCCn2c(C)cccc2=O)cc([C@H]2C[C@H](N)C2)n1 [CBK307337],111.501
19,Cc1ccc(CSCc2nc3ccccc3[nH]2)cc1 [CBK265238],111.754
20,COc1ccc(CNC(=O)N2CCN(c3ccccc3OC)CC2)cc1OC [CBK155609],105.423
21,CC1CCN(S(=O)(=O)c2ccc(NC(=O)COc3ccc4ccccc4c3)cc2)CC1 [CBK264969],121.356

row,SMILES,% of control remaining [%]
1,O=C(c1cnoc1-c1ccc(F)cc1)N1CCCC1 [CBK153707],131.49
2,O=C(O)c1cc2nc3c(c(C(F)(F)F)n2n1)CCc1ccccc1-3 [CBK263025],120.22
3,NC(=O)CN1CCC(Oc2cncc(OCCN3CCOCC3)n2)C1 (stereo not drawn) [CBK084488],109.255
4,CSc1ncnc2c1CC=N2 [CBK007532],142.995
5,O=C(c1ccccc1F)N1CCC(c2n[nH]c3ncccc23)CC1 [CBK284903],120.963
6,CCN1CCN(C(=O)c2ccccc2N(Cc2ccccc2)S(C)(=O)=O)CC1 [CBK267028],151.868
7,CC(C)Oc1cccc(C(=O)Nc2ccc(N3CCN(C)CC3)cc2)c1 [CBK266090],131.82
8,COc1ccc(S(=O)(=O)Nc2sccc2C#N)cc1 [CBK034732],128.299
9,CNC(=O)c1ccc(-c2ccc(N3CCOCC3)cc2)nc1NCC1CC1 [CBK106305],114.567
10,Cc1cc(C)c2nc(-c3ccccn3)cc(C(=O)Nc3cccc(Cn4cccn4)c3)c2c1 [CBK267723],122.123
11,CC(=O)c1csc(NC(=O)Cn2ccc3ccc(F)cc32)n1 [CBK282572],87.7795
12,COc1ccc(N2C(=O)CC(Sc3ncccc3C(=O)O)C2=O)cc1 (stereo not drawn) [CBK263387],134.344
13,CC1CN(c2cc(CO)c(F)cn2)CC2(CCOCC2)O1 (stereo not drawn) [CBK304773],123.473
14,COC(=O)COc1ccccc1/C=C1\SC(c2ccc(C)cc2)=NC1=O [CBK067741],128.7
15,CCOc1ccccc1NC(=O)NC1CC2CCC(C1)N2Cc1ccccc1 (stereo not drawn) [CBK116294],100
16,Cc1cc(NC(=O)c2ccc(Cl)c([N+](=O)[O-])c2)nc2c1c(=O)oc1ccccc12 [CBK291263],136.315
17,O=C(NCCN1CCC(O)(c2cccc(F)c2)CC1)C1CCCC1 [CBK283285],121.951
18,O=C(Cn1cccn1)NC(Cc1ccsc1)c1ccccn1 (stereo not drawn) [CBK285284],121.258
19,O=C(NCc1ccccn1)Nc1cccc(Cl)c1 [CBK058569],116.566
20,CCNC(=O)C1CCN(Cc2c[nH]nc2-c2ccc(F)cc2)C1 (stereo not drawn) [CBK307438],100.297
21,O=C(CCc1ccno1)NC(Cc1ccsc1)c1cccnc1 (stereo not drawn) [CBK285395],127.109

row,SMILES,% of control remaining [%]
1,O=C1CC2(CCN(C(=O)C3CCCC3)CC2)Oc2ccc(Cl)cc21 [CBK283625],102.002
2,CN(C)c1cccc(C(=O)N2CC[C@@H](c3ccccc3)[C@H](O)C2)c1 [CBK283713],143.695
3,O=C(Nc1cccc2[nH]ccc12)c1ccc(Br)cc1Cl [CBK159643],106.152
4,CCN(CC)CCn1cc(C2CCCN(C)CC2)c2ccccc21 (stereo not drawn) [CBK023788B],92.3962
5,Cc1ccccc1-n1c(C)cc(C(=O)CSc2nncn2C)c1C [CBK298330],102.331
6,CC(=O)Nc1ccc(-c2ccc(C(=O)N3CCN(C(=O)c4ccco4)CC3)cn2)cc1 [CBK160186],85.2736
7,CN1CCN(C)C(CNC(=O)c2ccc(-c3ccccc3CO)cc2)C1 (stereo not drawn) [CBK307475],114.5
8,Cc1cnn(-c2cc(Oc3ccccc3)ncn2)c1 [CBK287276],87.6872
9,Cc1cc(CSc2cccs2)no1 [CBK002635],102.79
10,Cc1ccc(NC(=O)CCC(=O)O)c(C(=O)c2ccccc2)c1 [CBK262611],100
11,c1ccc(Cc2nn3c(COc4ccccc4)nnc3s2)cc1 [CBK267163],150.939
12,CC1CCN(C(=S)Nc2ccccc2)CC(C)(C)C1 (stereo not drawn) [CBK006185],78.8523
13,CC(=O)Nc1ccc(Sc2ccccn2)cc1 [CBK085853],97.4462
14,OCc1ccccc1-c1cncc(NCc2ccc3c(c2)OCO3)n1 [CBK065318],99.4804
15,Cc1cc2ccccc2n2c(SCC(=O)NCc3ccco3)nnc12 [CBK265666],115.426
16,COc1ccccc1-c1ncc(OC2CCN(C)C2)nc1N (stereo not drawn) [CBK145081],148.909
17,COc1ncc(-c2nccnc2OCc2cccs2)c(OC)n1 [CBK106750],133.641
18,CC(CO)(CO)Nc1ccc(C(F)(F)F)cc1[N+](=O)[O-] [CBK262806],85.0553
19,O=C(CSc1nnnn1-c1ccc(O)cc1)NC1CCCC1 [CBK295659],106.299
20,CN(C)CCO/N=C1\CC2(CCCC2)c2ccc(Cl)cc21 [CBK013334],100
21,CCOc1ccc(C2CCCN2S(=O)(=O)c2c[nH]c(=O)[nH]c2=O)cc1 (stereo not drawn) [CBK285806],124.96

# 4 compounds from above, ordered by molar mass, ascending.
row,SMILES,% of control remaining [%]
2,CN(C)c1cccc(C(=O)N2CC[C@@H](c3ccccc3)[C@H](O)C2)c1 [CBK283713],143.695
4,CCN(CC)CCn1cc(C2CCCN(C)CC2)c2ccccc21 (stereo not drawn) [CBK023788B],92.3962
14,OCc1ccccc1-c1cncc(NCc2ccc3c(c2)OCO3)n1 [CBK065318],99.4804
1,O=C1CC2(CCN(C(=O)C3CCCC3)CC2)Oc2ccc(Cl)cc21 [CBK283625],102.002

# Reference: PMC12040169 (PLOS Biology, 2025)
